Test results reported in article PMC9200688, “The production and biochemical characterization of α-carbonic anhydrase from Lactobacillus rhamnosus GG” (Applied Microbiology and Biotechnology, 2022).
“And” between values parts separate entries of the source, which are not always exact repeats. Equal values may be shown once.

Target: T1, α-carbonic anhydrase of L. rhamnosus (LrhCA) (Lacticaseibacillus rhamnosus, UniProt A0A809N5C7)
T1 sequence (A0A809N5C7 1-215): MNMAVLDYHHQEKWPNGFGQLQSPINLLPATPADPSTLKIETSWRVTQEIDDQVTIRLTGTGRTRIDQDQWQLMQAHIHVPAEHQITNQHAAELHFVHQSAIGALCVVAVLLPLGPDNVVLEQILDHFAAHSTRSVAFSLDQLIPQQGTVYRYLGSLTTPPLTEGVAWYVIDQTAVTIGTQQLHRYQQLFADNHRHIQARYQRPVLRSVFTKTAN
Assay: Sulfonamide inhibition of LrhCA, stopped-flow CO2 hydrase assay
Type: biochemical, Lactobacillus rhamnosus GG

Work on `CC(=O)Nc1nnc(S(N)(=O)=O)s1` [AAZ, acetazolamide] yielded a Ki of 733 nM.

For `CCN[C@H]1C[C@H](C)S(=O)(=O)c2sc(S(N)(=O)=O)cc21` [DZA, dorzolamide, reference compound], the Ki was < 720 nM and 474 nM.
